Laboratory results from PubChem BioAssay AID624161 (National Center for Advancing Translational Sciences (NCATS), 2012).
This list was built around the results that the source calls inconclusive (neither active nor inactive); the mix of calls is not that of the screen. Where the call is inconclusive, the potency comes from a doubtful curve fit. Activity calls are given as the source filed them. The call rests on the fitted dose curve; in most records, active means well fitted inhibition curve with a large enough effect; inconclusive means small, poorly fitted or top-dose-only effect; inactive means no such curve, though single readings can be large or run the other way.

The chains behind the UniProt entries cited, without tags or fusion partners.
UniProt Q03164, whole entry, looked up: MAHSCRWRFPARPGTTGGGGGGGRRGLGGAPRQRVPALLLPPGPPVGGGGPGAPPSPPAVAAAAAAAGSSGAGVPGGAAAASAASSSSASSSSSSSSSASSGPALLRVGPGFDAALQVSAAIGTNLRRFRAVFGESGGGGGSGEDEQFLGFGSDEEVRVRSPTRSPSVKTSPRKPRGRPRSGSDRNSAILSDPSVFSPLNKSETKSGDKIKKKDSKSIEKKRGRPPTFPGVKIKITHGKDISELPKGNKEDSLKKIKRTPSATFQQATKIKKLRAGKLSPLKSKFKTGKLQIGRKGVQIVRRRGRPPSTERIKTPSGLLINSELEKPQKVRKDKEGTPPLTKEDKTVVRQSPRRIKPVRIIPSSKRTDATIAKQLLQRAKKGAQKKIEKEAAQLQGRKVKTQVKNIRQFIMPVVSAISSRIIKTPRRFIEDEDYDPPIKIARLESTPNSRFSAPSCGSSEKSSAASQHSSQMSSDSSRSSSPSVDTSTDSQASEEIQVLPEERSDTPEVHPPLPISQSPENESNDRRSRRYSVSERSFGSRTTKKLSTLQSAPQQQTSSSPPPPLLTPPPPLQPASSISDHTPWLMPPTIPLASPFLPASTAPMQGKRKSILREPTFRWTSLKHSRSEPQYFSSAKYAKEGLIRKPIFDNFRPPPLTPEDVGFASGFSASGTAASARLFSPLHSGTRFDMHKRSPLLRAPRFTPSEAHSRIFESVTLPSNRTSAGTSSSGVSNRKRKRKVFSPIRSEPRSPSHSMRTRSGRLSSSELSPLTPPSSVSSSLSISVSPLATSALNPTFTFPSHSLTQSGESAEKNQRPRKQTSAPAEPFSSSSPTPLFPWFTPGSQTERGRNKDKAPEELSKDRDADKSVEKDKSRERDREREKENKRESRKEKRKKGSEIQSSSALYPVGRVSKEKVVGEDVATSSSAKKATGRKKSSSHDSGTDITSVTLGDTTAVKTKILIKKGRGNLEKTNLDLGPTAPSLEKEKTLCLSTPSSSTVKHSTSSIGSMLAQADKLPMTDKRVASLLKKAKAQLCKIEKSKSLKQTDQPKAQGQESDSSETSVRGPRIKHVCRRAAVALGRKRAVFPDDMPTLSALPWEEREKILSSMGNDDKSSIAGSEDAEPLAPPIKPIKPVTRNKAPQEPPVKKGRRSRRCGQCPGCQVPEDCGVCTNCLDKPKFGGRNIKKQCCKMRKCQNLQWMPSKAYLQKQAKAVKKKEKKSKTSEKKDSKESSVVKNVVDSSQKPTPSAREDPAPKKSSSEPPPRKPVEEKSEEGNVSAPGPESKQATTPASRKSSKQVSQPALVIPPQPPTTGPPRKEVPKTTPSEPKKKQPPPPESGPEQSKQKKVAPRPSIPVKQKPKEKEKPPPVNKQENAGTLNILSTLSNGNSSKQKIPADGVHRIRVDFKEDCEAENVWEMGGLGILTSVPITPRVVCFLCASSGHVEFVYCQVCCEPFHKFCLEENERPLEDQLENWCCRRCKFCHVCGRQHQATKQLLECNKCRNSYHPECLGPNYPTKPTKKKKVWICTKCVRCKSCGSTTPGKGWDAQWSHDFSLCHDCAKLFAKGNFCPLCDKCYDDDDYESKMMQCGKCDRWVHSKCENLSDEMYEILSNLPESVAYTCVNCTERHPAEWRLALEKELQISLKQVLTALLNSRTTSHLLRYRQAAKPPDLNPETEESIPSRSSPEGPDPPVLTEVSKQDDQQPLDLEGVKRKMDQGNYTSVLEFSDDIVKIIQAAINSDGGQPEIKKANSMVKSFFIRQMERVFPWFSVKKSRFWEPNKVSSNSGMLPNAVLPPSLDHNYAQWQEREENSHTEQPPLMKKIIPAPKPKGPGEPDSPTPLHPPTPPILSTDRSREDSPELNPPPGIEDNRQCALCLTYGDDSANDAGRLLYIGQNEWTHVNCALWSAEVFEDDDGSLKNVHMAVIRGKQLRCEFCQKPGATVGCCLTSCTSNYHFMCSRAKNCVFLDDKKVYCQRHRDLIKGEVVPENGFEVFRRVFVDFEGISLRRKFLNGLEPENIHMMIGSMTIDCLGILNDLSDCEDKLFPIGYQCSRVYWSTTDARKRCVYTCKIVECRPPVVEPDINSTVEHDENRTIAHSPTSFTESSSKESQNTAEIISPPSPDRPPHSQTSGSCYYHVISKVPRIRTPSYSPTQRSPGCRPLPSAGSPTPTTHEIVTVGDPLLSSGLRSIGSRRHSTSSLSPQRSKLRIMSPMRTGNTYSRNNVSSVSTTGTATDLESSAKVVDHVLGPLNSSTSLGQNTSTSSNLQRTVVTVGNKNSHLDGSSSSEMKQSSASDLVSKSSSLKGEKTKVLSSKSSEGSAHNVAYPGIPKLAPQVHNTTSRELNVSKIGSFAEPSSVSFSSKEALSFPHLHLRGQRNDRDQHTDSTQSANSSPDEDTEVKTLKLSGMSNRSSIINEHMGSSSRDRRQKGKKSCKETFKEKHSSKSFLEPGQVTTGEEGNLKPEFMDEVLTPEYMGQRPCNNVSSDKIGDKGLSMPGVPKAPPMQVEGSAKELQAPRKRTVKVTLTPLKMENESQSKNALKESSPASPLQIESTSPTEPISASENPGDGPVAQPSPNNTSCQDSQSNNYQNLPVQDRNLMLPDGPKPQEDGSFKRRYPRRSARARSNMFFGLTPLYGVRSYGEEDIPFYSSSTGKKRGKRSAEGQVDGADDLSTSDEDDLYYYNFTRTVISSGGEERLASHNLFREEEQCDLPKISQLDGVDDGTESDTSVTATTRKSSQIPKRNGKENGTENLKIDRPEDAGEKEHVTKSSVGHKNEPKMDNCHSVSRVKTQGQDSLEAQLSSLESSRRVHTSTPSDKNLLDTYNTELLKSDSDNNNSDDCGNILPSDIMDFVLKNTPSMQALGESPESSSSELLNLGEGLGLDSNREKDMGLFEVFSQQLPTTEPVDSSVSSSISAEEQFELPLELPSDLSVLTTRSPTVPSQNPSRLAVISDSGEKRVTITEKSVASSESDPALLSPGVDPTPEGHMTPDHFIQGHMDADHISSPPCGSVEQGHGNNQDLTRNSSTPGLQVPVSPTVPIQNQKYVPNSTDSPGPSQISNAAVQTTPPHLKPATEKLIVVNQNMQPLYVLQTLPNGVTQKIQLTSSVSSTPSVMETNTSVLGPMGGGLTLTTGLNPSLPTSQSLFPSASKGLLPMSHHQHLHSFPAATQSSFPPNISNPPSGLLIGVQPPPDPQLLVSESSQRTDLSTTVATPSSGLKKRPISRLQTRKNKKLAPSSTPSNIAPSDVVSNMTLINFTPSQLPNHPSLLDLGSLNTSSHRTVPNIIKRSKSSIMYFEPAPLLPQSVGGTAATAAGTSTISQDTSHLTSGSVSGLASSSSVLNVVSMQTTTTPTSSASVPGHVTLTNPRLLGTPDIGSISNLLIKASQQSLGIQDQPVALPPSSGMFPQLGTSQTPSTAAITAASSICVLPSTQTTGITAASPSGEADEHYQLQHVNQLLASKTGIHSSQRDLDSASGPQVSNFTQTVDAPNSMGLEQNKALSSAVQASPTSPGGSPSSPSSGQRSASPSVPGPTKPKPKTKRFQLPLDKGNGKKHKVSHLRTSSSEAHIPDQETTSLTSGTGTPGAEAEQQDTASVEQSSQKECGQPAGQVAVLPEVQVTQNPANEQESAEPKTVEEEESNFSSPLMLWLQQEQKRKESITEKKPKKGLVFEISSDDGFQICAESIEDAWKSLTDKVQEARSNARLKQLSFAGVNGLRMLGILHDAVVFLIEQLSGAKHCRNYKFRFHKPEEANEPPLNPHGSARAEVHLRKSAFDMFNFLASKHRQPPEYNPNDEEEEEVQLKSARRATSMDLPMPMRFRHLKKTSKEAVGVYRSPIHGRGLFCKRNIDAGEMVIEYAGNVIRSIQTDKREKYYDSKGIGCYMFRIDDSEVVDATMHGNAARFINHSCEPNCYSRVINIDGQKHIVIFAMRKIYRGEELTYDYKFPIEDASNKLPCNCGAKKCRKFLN

molecular target: Histone-lysine N-methyltransferase 2A (Homo sapiens) (UniProt Q03164); assay: qHTS Fluorescence Polarization (FP) Assay for Inhibitors of MLL CXXC domain - DNA interaction: Texas Red FP; details: MLL CXXC-DNA binding; series mostly up to 345 µM; activity change, negative = inhibition: at the top concentration; further: nearly all actives have a fitted effect of over 75% in size
Outline: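 MLL-CXXC domain (7 uM solution) preincubated 5 min with compound, then Texas Red-labelled HOX-A9 DNA (50 nM solution) added for 30 min at ambient. Buffer 50 mM Tris-HCl pH 7.5, 50 mM NaCl, 1 mM DTT, 0.05% BSA; fluorescence polarization read.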
On the % scale 0 is the no-effect control and ±100 the full control effect; potency means the concentration at half of the fitted maximal effect.

Row | SMILES | activity change, negative = inhibition | Potency
1 | CC1(C)CC(=O)C(C(C2=C(O)CC(C)(C)CC2=O)c2ccc(Br)s2)C(=O)C1 (stereo unspecified) | inactive: 37.3% | 
2 | CC(=O)c1c(O)cc(O)cc1CC(=O)O | inactive: -0.383% | 
3 | CC(=O)[C@]1(O)Cc2c(O)c3c(c(O)c2[C@@H](O[C@H]2C[C@H](N)[C@H](O)[C@H](C)O2)C1)C(=O)c1ccccc1C3=O |  | active: 100 µM
4 | O=C(O)c1ccc(S(=O)(=O)/N=C2\C=C(Nc3ccccc3F)C(=O)c3ccccc32)cc1 |  | active: 142 µM
5 | COc1ccc(-c2onc3ccc(C(C)=O)cc23)cc1 | inactive: -8.07% | 
6 | O=[N+]([O-])c1cccc(-c2cn3nc(-c4ccccc4)c(-c4ccccc4)nc3n2)c1 | inactive: 48.9% | 
7 | Cc1cc(N)c2cc(NC(=O)Nc3ccc4nc(C)cc(N)c4c3)ccc2n1 |  | inconclusive: 5.03 µM [inhibitor, full curve]
8 | COc1ccc(C(C[N+](=O)[O-])C2(c3ccc(OC)c(OC)c3)C(=O)c3ccccc3C2=O)cc1 (stereo unspecified) | inactive: 18% | 
9 | C/C(=N\Nc1nc2ccccc2c(=O)n1O)c1ccco1 |  | inconclusive: 142 µM [inhibitor, partial curve]
10 | O=C1C(=Cc2cccs2)C(=O)c2ccccc21 |  | inconclusive: 89.5 µM [inhibitor, partial curve, poor fit]
11 | C=CCOC(=O)C(=O)/C=C/c1csc2ccccc12 |  | inconclusive: 142 µM [inhibitor, partial curve]

Quoted from above, entries 10–11
Row | SMILES | activity change, negative = inhibition | Potency
10 | O=C1C(=Cc2cccs2)C(=O)c2ccccc21 |  | inconclusive: 89.5 µM [inhibitor, partial curve, poor fit]
11 | C=CCOC(=O)C(=O)/C=C/c1csc2ccccc12 |  | inconclusive: 142 µM [inhibitor, partial curve]
